From article PMC6899042, “Perturbation of the titin/MURF1 signaling complex is associated with hypertrophic cardiomyopathy in a fish model and in human patients” (Disease Models & Mechanisms, 2019)
No constants are given. Whether binding was seen depends on the method and setting. In cells and extracts the contact can be indirect. Some results given as binding are weak or reduced against the parent protein; the word gives no strength.

The chains behind the UniProt entries cited, without tags or fusion partners. A line that says so, or that is headed by a name, gives the form on record, which may keep a tag or linker. Residues count along the entry.
UniProt Q969Q1: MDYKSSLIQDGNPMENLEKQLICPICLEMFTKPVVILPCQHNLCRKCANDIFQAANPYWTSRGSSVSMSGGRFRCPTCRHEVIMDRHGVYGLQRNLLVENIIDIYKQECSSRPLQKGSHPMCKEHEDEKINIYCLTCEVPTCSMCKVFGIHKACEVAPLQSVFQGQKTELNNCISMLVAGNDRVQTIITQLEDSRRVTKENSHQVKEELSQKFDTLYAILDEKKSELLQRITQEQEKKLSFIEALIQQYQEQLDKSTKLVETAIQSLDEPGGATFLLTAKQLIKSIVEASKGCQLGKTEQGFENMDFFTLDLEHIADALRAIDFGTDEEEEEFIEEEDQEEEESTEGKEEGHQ
GFP-tagged WT-TTN-A156 (titin Ig domain A156) (Q8WZ42, residues 30662-30756): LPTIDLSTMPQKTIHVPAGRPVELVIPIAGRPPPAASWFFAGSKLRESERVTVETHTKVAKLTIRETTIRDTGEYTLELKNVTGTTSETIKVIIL
GFP-tagged WT-TTN-A160-161 (titin domains A160-161) (Q8WZ42, residues 31061-31253): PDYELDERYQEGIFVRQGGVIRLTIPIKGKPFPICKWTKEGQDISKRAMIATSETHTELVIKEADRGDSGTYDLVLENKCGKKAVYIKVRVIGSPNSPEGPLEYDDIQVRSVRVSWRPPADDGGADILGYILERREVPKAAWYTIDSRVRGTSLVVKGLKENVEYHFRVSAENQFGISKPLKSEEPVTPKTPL
GFP-tagged WT-TTN-A168-170 (titin domains A168-A170) (Q8WZ42, residues 31855-32155): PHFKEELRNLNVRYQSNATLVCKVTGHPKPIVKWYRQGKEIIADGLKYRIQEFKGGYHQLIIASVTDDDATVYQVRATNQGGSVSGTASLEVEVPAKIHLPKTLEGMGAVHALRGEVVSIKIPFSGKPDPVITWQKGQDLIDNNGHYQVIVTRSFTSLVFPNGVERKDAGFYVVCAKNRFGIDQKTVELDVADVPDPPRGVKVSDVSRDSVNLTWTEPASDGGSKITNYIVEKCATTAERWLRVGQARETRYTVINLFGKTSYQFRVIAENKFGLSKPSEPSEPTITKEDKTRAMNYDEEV
GFP-tagged WT-TTN-A168 (titin Ig domain A168) (Q8WZ42, residues 31855-31948): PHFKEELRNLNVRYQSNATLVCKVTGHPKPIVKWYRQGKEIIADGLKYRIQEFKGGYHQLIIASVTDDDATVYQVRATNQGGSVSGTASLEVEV

biological target: myc-tagged MURF1 (muscle-specific ring finger protein 1), full length (human) (UniProt Q969Q1); experiment: co-IP; GFP-tagged TTN fragment co-transfected with myc-tagged MURF1 (COS-7 cells named for A168-170); IP with anti-myc antibody (Catch and Release v2.0 Reversible Immunoprecipitation System), Western blot with anti-GFP; densitometry normalised to the input amount of GFP-TTN, WT set to 1.00 AU

Substance | binding
GFP-tagged WT-TTN-A160-161 (titin domains A160-161) (from UniProt Q8WZ42-11 30134-30326) (domain or fragment) | binds
GFP-tagged WT-TTN-A156 (titin Ig domain A156) (from UniProt Q8WZ42-11 29735-29829) (domain or fragment) | binds
GFP-tagged WT-TTN-A168 (titin Ig domain A168) (from UniProt Q8WZ42-11 30928-31021) (domain or fragment) | binds
GFP-tagged WT-TTN-A168-170 (titin domains A168-A170) (from UniProt Q8WZ42-11 30928-31228) (domain or fragment) | binds
